Assay [1] addresses T1, FLAG-tagged CDIN1 (F-CDIN1) (UniProt Q9Y2V0).
T1 sequence: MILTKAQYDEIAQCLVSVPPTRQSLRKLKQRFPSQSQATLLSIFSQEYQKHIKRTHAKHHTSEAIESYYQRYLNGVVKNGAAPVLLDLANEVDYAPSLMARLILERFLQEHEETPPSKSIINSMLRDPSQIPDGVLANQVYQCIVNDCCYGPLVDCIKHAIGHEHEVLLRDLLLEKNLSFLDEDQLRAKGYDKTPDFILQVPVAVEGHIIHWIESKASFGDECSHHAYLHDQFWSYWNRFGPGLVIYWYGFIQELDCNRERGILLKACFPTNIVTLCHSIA
Nature of the assay: co-IP + pull-down; tandem purification from transiently transfected Expi293 cells: anti-FLAG immunoprecipitation, 3x FLAG peptide elution, then Strep-Tactin pulldown, desthiobiotin elution; Coomassie staining and immunoblotting. For orientation: Immunoblotting shows a protein as a band on a membrane.

By UniProt entry, the sequences of proteins in these tests, tags left out.
UniProt Q9Y294: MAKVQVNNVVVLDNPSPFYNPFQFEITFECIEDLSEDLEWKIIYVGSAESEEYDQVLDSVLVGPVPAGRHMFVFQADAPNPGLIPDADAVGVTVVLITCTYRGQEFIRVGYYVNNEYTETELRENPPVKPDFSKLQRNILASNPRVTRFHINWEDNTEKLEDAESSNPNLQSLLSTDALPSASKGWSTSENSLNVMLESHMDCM
UniProt Q9NVP2: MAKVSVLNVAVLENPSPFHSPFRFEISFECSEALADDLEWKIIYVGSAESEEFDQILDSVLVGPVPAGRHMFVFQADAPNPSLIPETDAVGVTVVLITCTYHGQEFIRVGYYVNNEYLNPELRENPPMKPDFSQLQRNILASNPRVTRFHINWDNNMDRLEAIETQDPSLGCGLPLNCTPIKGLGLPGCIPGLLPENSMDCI

The target of assay [2] is T2, Strep-tagged CDAN1 (ST-CDAN1), wildtype (human, UniProt Q8IWY9 1-1227).
T2 construct: Codanin-1 (CDAN1) cDNA from Horizon Discovery/Dharmacon; a point mutation of the clone (S421F) was corrected; in pCDNA3.1; Dimer by SEC-MALS and cryo-EM; Same plasmid used in Expi293 (purifications) and in Flp-In 293 T-REx (pulldowns); kept as one molecule; also called WT CDAN1; Strep-CDAN1; source: Expi293, transiently transfected, in lysate and purified in complexes (anti-FLAG, Strep-Tactin); …
T2 sequence: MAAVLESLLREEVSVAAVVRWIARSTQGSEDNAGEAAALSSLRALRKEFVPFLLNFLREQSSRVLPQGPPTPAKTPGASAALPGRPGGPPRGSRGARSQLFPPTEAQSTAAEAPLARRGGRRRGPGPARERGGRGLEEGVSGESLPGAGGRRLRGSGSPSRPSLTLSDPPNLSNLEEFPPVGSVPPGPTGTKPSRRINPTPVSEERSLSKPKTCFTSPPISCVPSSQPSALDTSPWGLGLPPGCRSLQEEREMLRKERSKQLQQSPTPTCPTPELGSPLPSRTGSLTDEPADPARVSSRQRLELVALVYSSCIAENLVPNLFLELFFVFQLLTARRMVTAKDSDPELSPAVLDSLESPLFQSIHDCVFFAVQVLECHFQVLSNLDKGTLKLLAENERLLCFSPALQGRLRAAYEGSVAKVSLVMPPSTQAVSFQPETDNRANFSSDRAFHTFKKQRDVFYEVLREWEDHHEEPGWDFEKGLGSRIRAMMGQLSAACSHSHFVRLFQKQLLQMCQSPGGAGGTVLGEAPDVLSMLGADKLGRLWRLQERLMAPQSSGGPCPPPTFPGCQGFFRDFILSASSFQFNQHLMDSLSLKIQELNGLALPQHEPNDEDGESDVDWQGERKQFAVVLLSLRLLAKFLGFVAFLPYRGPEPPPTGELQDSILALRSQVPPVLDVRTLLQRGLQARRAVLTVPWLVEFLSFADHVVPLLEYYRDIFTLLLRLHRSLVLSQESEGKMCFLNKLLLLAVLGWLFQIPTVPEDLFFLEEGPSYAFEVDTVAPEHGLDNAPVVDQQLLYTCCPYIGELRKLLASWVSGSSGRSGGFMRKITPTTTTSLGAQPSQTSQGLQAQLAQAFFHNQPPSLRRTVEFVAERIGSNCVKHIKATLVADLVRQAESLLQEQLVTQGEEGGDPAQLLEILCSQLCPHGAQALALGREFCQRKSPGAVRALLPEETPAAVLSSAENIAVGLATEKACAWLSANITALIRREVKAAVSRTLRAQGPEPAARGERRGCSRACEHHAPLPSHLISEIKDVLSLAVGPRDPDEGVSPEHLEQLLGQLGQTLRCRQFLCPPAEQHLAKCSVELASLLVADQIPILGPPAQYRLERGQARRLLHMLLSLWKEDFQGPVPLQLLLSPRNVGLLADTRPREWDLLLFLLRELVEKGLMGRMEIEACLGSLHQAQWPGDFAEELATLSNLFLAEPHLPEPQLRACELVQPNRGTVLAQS
The description is as above.

In assay [3] the target is T3, endogenous CDIN1 with a C-terminal HaloTag-FLAG (HF) epitope (human (endogenous in Flp-In 293 T-REx)) (UniProt Q9Y2V0).
T3 sequence: T1 sequence
Kind of assay: co-IP; anti-FLAG M2 agarose immunoprecipitation of endogenously HaloTag-FLAG-tagged CDAN1 or CDIN1 from Flp-In 293 T-REx lysates in IP buffer (50 mM HEPES pH 7.5, 100 mM KOAc, 2.5 Mg(OAc)2, 1% Triton X-100); immunoblotting.

Assay [4] has as its target FLAG-tagged ASF1A (F-ASF1A) (human) (UniProt Q9Y294). Kind of assay: co-IP + pull-down; tandem purification from transiently transfected Expi293 cells: anti-FLAG immunoprecipitation, 3x FLAG peptide elution, then Strep-Tactin pulldown, desthiobiotin elution; Coomassie staining and immunoblotting.
In assay [5] the target is T1, FLAG-tagged CDIN1 (F-CDIN1). The assay is described as above. The source holds these as a separate data set.
Assay [6] deals with T2, Strep-tagged CDAN1 (ST-CDAN1), wildtype. The assay is described as above. The source holds these as a separate data set.

Read-outs that look alike come from different tables or passages of the source. These are yes or no findings as the source states them, for the method shown. Binding seen in cells or lysates may run through a third protein. Some binding calls cover weakened binding; strength is not graded here. For some of these results: Tags and fused reporters may be left off the sequences shown.

As to “endogenous ASF1A (from UniProt Q9Y294 1-204)”, the binding entry in assay [1], in assay [2] and in assay [3] was “binds” in each case.

“endogenous ASF1B (from UniProt Q9NVP2 1-202)”: the binding result in assay [3] is “binds”.

B1: FLAG-tagged CDIN1 (F-CDIN1) (natural protein, UniProt Q9Y2V0 1-281, looked up)
chain: T1 sequence
notes: CDIN1 (C15orf41) cDNA synthesized by IDT, in pCDNA3.1; source: Expi293, transiently transfected, in lysate and purified in complexes (anti-FLAG, Strep-Tactin); not shown: 3xFLAG, N-terminal, kept
For the molecule B1, the binding entry in assay [4], in assay [5] and in assay [6] was “binds” throughout.

Values taken from paper doi:10.1101/2024.08.08.607204, “Mechanism of ASF1 Inhibition by CDAN1” (bioRxiv, 2024).
